PubChem BioAssay AID1224830 | NIAID | 2016

Aim: 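Host factors that control LPS-induced TNF expression in human macrophages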 (primary screen)
Cells: human THP-1 monocytic leukaemia cells, TNF dual-luciferase reporter clone, PMA-differentiated to macrophage-like cells
Reagent: siRNA pool against human genes, 50 nM
Time to read-out: LPS for 4 h, given about 3 days after siRNA transfection
Treatment: bacterial LPS (TLR4 ligand), 10 ng/ml
Measurement: 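TNF firefly reporter luminescence divided by renilla, normalised to the plate median, then turned into a robust z-score for each replicate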
Scale: TNF reporter robust z-score: higher = stronger TNF reporter response to LPS
Hit rule: 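Each well counts as active if its z-score is over 2.8 or under -1.5; controls are left without a call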
This is an unselected part of about 18,000 reagents tested. In the full data, about 2,900 (16%) got an active call. 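Calls are made per well; low scores hint the gene aids the LPS response, high scores that it dampens it.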 A number with no mark means an inactive call. Repeated entries: four replicate wells of each siRNA pool.

After knock-down of BEND4 the results were TNF reporter robust z-score -0.22.
BEND4 gave TNF reporter robust z-score 0.28.
Depletion of BEND4 came out at: TNF reporter robust z-score 0.1.
Knock-down of BEND4 resulted in: TNF reporter robust z-score 1.2.
USP21 showed TNF reporter robust z-score -0.49.
USP21 gave TNF reporter robust z-score 0.03.
Depletion of USP21 came out at: TNF reporter robust z-score 0.97.
After knock-down of USP21, the record shows TNF reporter robust z-score 0.54.
After knock-down of CELSR3, the record shows TNF reporter robust z-score -0.32.
With knock-down of CELSR3, the record shows TNF reporter robust z-score -0.97.
CELSR3 scored TNF reporter robust z-score -0.68.
CELSR3 showed TNF reporter robust z-score -0.71.
Knock-down of CHFR gave: TNF reporter robust z-score 0.38.
CHFR gave TNF reporter robust z-score -1.28.
Against CHFR the deposit lists TNF reporter robust z-score -0.74.
Depletion of CHFR gave: TNF reporter robust z-score 0.82.
After knock-down of UXS1, the screen gave TNF reporter robust z-score 1.77.
With knock-down of UXS1 the results were TNF reporter robust z-score 0.02.
Silencing of UXS1 resulted in: TNF reporter robust z-score 2.19.
UXS1 gave TNF reporter robust z-score 0.38.
ELFN2 showed TNF reporter robust z-score 1.71.
ELFN2 gave TNF reporter robust z-score -0.11.
With knock-down of ELFN2 the results were TNF reporter robust z-score 0.61.
ELFN2 showed TNF reporter robust z-score 2.77.
RPS28 showed TNF reporter robust z-score -0.54.
After knock-down of RPS28, the screen gave TNF reporter robust z-score -1.3.
RPS28 scored TNF reporter robust z-score -0.69.
Silencing of RPS28 resulted in: TNF reporter robust z-score -0.35.
After knock-down of PGBD2, the screen gave TNF reporter robust z-score -1.02.
For PGBD2 the deposit lists TNF reporter robust z-score -0.41.
With knock-down of PGBD2, the screen gave TNF reporter robust z-score -0.71.
Depletion of SGO2 gave: TNF reporter robust z-score 0.82.
After knock-down of SGO2, the record shows TNF reporter robust z-score 0.43.
For SGO2, the entry reads TNF reporter robust z-score 0.87.
For HHATL, the entry reads TNF reporter robust z-score -0.46.
Knock-down of HHATL gave: TNF reporter robust z-score 0.35.
HHATL showed TNF reporter robust z-score -0.97.
Knock-down of HHATL came out at: TNF reporter robust z-score 1.13.
For INS, the entry reads TNF reporter robust z-score -0.17.
Silencing of INS resulted in: TNF reporter robust z-score 0.38.
Knock-down of INS resulted in: TNF reporter robust z-score -1.04.
INS scored TNF reporter robust z-score -0.72.
Depletion of FOXN4 gave: TNF reporter robust z-score -0.96.
Against FOXN4, the entry reads TNF reporter robust z-score -0.68.
FOXN4 showed TNF reporter robust z-score -0.29.
FOXN4 scored TNF reporter robust z-score -0.61.
Against GNE, the entry reads TNF reporter robust z-score 1.12.
With knock-down of GNE, the screen gave TNF reporter robust z-score -0.04.
Knock-down of GNE resulted in: TNF reporter robust z-score 0.59.
After knock-down of GNE, the screen gave TNF reporter robust z-score 0.12.

An excerpt taken from the entries so far, for reference:
USP21 — TNF reporter robust z-score: 0.97
USP21 — TNF reporter robust z-score: 0.54
CELSR3 — TNF reporter robust z-score: -0.32
CELSR3 — TNF reporter robust z-score: -0.97
CELSR3 — TNF reporter robust z-score: -0.68
CELSR3 — TNF reporter robust z-score: -0.71
CHFR — TNF reporter robust z-score: 0.38
